From publication PMC5762535, “Novel indazole-based small compounds enhance TRAIL-induced apoptosis by inhibiting the MKK7-TIPRL interaction in hepatocellular carcinoma” (Oncotarget, 2017)
No constants are given. Whether binding was seen depends on the method and setting. For some assays here: Binding seen in cells or lysates may run through a third protein. Some binding calls cover weakened binding; strength is not graded here. Sequences can lack the tags named with a protein.

Sequences of proteins named here, by UniProt entry; tags and fusion partners are left off.
UniProt O14733: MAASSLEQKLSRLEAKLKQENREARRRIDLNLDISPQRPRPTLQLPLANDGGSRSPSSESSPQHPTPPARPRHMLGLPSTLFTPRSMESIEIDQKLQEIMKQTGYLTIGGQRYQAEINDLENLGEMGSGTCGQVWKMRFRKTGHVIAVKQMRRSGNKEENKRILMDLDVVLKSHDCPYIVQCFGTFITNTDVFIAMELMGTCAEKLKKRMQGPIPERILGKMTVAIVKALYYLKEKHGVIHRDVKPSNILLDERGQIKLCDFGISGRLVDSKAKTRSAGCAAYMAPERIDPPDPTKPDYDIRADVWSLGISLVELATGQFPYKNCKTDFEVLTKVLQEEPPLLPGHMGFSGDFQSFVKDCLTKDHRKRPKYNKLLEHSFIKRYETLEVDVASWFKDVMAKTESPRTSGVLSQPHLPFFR

B1: His-tagged TOR signaling pathway regulator-like protein (TIPRL) conjugated with horseradish peroxidase (protein, UniProt O75663 1-272)
chain: MMIHGFQSSHRDFCFGPWKLTASKTHIMKSADVEKLADELHMPSLPEMMFGDNVLRIQHGSGFGIEFNATDALRCVNNYQGMLKVACAEEWQESRTEGEHSKEVIKPYDWTYTTDYKGTLLGESLKLKVVPTTDHIDTEKLKAREQIKFFEEVLLFEDELHDHGVSSLSVKIRVMPSSFFLLLRFFLRIDGVLIRMNDTRLYHEADKTYMLREYTSRESKISSLMHVPPSLFTEPNEISQYLPIKEAVCEKLIFPERIDPNPADSQKSTQVE
modifications: conjugated with horseradish peroxidase (HRP)
B2: HA-tagged TOR signaling pathway regulator-like protein (TIPRL) (protein, UniProt O75663 1-272)
chain: B1 chain

Experiments:
[1] = target: GST-tagged mitogen-activated protein kinase kinase 7 (MKK7) (human) (UniProt O14733); experiment: ELISA; 96-well plates coated with GST-MKK7 in PBS-T (PBS, 0.05% Tween-20, 0.5% BSA); TIPRL-HRP in PBS-T added for 1 h; TMB, absorbance at 450 nm; used to screen small compounds at 10 uM; both purified
[2] = target: GST-tagged mitogen-activated protein kinase kinase 7 (MKK7) (human) (UniProt O14733); experiment: pull-down; 293T cells co-transfected with GST-MKK7 and HA-TIPRL for 24 h, then treated or not with TRT-0029 (10 uM) or TRT-0173 (20 uM) and/or TRAIL for 24 h; RIPA lysate on Glutathione Sepharose 4B; Western blot

Row | Binder | binding [1] | binding [2]
1 | B1 | binds | –
2 | B2 | – | binds
